For some of these results: Where cells or extracts were used, other partners may take part. For some of these results: A weaker result is weaker than the reference pair of the same experiment. Where a protein sequence is shown, tags need not be part of it. For some of these results: Construct, isoform or probe ends are uncertain for at least one entry.
Key:
[1] = tested on: T1, DBP045 (synthetic construct); test: flow cytometry; conditions: 1 uM dsDNA with avidity; protein on the cell surface; protein details: yeast display (pETcon3, c-Myc); label: biotin
T1 sequence: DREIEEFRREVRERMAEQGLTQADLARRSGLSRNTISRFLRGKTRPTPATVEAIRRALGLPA

[2] = tested on: T2, DBP046 (synthetic construct); test: flow cytometry; conditions: 1 uM dsDNA with avidity; protein on the cell surface; protein details: yeast display (pETcon3, c-Myc); label: biotin
T2 sequence: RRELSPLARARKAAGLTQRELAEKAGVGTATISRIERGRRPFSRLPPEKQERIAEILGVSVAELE

[3] = tested on: T3, DBP080 (synthetic construct); test: flow cytometry; conditions: 1 uM dsDNA with avidity; protein on the cell surface; protein details: yeast display (pETcon3, c-Myc); label: biotin
T3 sequence: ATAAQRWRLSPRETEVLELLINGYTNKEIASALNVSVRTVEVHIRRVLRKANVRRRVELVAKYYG

[4] = tested on: T4, DBP071 (synthetic construct); test: flow cytometry; conditions: 1 uM dsDNA with avidity; protein on the cell surface; protein details: yeast display (pETcon3, c-Myc); label: biotin
T4 sequence: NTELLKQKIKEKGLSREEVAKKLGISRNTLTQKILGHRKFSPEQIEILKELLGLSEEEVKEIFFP

[5] = tested on: T5, DBP090 (synthetic construct); test: flow cytometry; conditions: protein on the cell surface, protein details: yeast display (pETcon3, c-Myc), label: biotin
T5 sequence: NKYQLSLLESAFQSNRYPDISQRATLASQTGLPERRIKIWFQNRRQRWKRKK

[6] = tested on: T6, DBP069 (synthetic construct); test: flow cytometry; conditions: prefers less than 3 of 13 targets; protein on the cell surface; protein details: yeast display (pETcon3, c-Myc); label: biotin
T6 sequence: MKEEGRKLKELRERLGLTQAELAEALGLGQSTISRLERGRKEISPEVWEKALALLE

[7] = tested on: T7, DBP068 (synthetic construct); test: flow cytometry; conditions: 1 uM dsDNA with avidity; protein on the cell surface; protein details: yeast display (pETcon3, c-Myc); label: biotin
T7 sequence: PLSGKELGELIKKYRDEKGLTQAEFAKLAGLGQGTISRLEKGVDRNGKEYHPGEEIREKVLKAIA

[8] = tested on: T8, DBP057 (synthetic construct); test: flow cytometry; conditions: protein on the cell surface, protein details: yeast display (pETcon3, c-Myc), label: biotin
T8 sequence: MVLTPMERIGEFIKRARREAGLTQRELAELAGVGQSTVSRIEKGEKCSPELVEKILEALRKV

[9] = tested on: T9, DBP052 (synthetic construct); test: flow cytometry; conditions: prefers 2-3 of 13 targets; protein on the cell surface; protein details: yeast display (pETcon3, c-Myc); label: biotin
T9 sequence: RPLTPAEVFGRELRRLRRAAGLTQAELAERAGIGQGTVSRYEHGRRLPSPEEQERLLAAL

[10] = tested on: T10, DBP060 (synthetic construct); test: flow cytometry; conditions: prefers 2-3 of 13 targets; protein on the cell surface; protein details: yeast display (pETcon3, c-Myc); label: biotin
T10 sequence: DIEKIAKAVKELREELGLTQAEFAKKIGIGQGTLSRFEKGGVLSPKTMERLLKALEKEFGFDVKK

[11] = tested on: T11, DBP051 (synthetic construct); test: flow cytometry; conditions: prefers less than 3 of 13 targets; protein on the cell surface; protein details: yeast display (pETcon3, c-Myc); label: biotin
T11 sequence: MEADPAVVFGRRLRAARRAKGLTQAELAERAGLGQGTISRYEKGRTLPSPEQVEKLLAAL

[12] = tested on: T12, DBP058 (synthetic construct); test: flow cytometry; conditions: 1 uM dsDNA with avidity; protein on the cell surface; protein details: yeast display (pETcon3, c-Myc); label: biotin
T12 sequence: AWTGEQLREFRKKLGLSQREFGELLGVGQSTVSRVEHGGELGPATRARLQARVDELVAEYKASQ

[13] = tested on: T13, DBP056 (synthetic construct); test: flow cytometry; conditions: 1 uM dsDNA yeast display; protein on the cell surface; protein details: yeast display (pETcon3, c-Myc); label: biotin
T13 sequence: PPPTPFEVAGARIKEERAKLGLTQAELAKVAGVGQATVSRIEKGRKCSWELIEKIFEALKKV

[14] = tested on: T14, DBP054 (synthetic construct); test: flow cytometry; conditions: 1 uM dsDNA with avidity; protein on the cell surface; protein details: yeast display (pETcon3, c-Myc); label: biotin
T14 sequence: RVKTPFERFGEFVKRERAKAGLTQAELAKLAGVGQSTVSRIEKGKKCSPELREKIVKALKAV

[15] = tested on: T15, DBP055 (synthetic construct); test: flow cytometry; conditions: 1 uM dsDNA with avidity; protein on the cell surface; protein details: yeast display (pETcon3, c-Myc); label: biotin
T15 sequence: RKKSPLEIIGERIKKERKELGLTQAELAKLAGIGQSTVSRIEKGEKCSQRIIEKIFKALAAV

[16] = tested on: T16, DBP053 (synthetic construct); test: flow cytometry; conditions: 1 uM dsDNA with avidity; protein on the cell surface; protein details: yeast display (pETcon3, c-Myc); label: biotin
T16 sequence: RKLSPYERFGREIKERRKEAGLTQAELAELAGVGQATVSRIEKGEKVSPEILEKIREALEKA

[17] = tested on: T17, DBP059 (synthetic construct); test: flow cytometry; conditions: 1 uM dsDNA with avidity; protein on the cell surface; protein details: yeast display (pETcon3, c-Myc); label: biotin
T17 sequence: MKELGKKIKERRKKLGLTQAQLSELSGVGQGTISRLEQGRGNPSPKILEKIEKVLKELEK

[18] = tested on: T18, DBP056 purified (synthetic construct); test: BLI; conditions: range for all purified designs; PBS, 1% BSA, 0.05% Tween 20; purified recombinant protein; protein details: His tag; label: biotin
T18 sequence: T13 sequence

[19] = tested on: T19, DBP040 (synthetic construct); test: flow cytometry; conditions: 1 uM dsDNA without avidity; protein on the cell surface; protein details: yeast display (pETcon3, c-Myc); label: biotin
T19 sequence: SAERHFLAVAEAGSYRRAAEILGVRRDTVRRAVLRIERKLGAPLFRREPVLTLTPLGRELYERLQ

[20] = tested on: T20, DBP089 (synthetic construct); test: flow cytometry; conditions: bound most of the 13 targets; protein on the cell surface; protein details: yeast display (pETcon3, c-Myc); label: biotin
T20 sequence: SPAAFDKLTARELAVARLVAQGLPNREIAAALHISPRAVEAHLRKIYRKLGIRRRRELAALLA

[21] = tested on: T21, DBP088 (synthetic construct); test: flow cytometry; conditions: 1 uM dsDNA with avidity; protein on the cell surface; protein details: yeast display (pETcon3, c-Myc); label: biotin
T21 sequence: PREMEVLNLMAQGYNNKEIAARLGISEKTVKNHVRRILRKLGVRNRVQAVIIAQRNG

[22] = tested on: T22, DBP083 (synthetic construct); test: flow cytometry; conditions: prefers less than 3 of 13 targets; protein on the cell surface; protein details: yeast display (pETcon3, c-Myc); label: biotin
T22 sequence: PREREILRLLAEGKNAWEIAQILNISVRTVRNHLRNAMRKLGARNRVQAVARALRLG

[23] = tested on: T23, DBP086 (synthetic construct); test: flow cytometry; conditions: 1 uM dsDNA with avidity; protein on the cell surface; protein details: yeast display (pETcon3, c-Myc); label: biotin
T23 sequence: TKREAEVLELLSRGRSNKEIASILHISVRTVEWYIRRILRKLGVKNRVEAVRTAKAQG

[24] = tested on: T24, DBP001 (synthetic construct); test: flow cytometry; conditions: 1 uM dsDNA yeast display; prefers 2-3 of 13 targets; protein on the cell surface; protein details: yeast display (pETcon3, c-Myc); label: biotin
T24 sequence: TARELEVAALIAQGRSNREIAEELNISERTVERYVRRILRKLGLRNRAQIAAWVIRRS

[25] = tested on: T25, DBP005 (synthetic construct); test: flow cytometry; conditions: 1 uM dsDNA yeast display; protein on the cell surface; protein details: yeast display (pETcon3, c-Myc); label: biotin
T25 sequence: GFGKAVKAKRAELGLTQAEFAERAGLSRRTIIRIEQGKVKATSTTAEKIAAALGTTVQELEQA

[26] = tested on: T26, DBP082 (synthetic construct); test: flow cytometry; conditions: 1 uM dsDNA with avidity; protein on the cell surface; protein details: yeast display (pETcon3, c-Myc); label: biotin
T26 sequence: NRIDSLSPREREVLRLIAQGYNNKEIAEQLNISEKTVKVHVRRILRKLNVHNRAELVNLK

[27] = tested on: T27, DBP028 (synthetic construct); test: flow cytometry; conditions: 1 uM dsDNA without avidity; protein on the cell surface; protein details: yeast display (pETcon3, c-Myc); label: biotin
T27 sequence: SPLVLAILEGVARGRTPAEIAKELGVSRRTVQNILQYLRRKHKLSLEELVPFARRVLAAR

[28] = tested on: T28, DBP081 (synthetic construct); test: flow cytometry; conditions: 1 uM dsDNA with avidity; protein on the cell surface; protein details: yeast display (pETcon3, c-Myc); label: biotin
T28 sequence: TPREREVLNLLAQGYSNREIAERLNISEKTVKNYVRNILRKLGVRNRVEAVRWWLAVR

[29] = tested on: T29, DBP003 (synthetic construct); test: flow cytometry; conditions: 1 uM dsDNA yeast display; protein on the cell surface; protein details: yeast display (pETcon3, c-Myc); label: biotin
T29 sequence: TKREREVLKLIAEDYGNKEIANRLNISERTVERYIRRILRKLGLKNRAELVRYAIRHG

Q: What does the source list for “CGGGGAAACGCCCG (double strand) [target H]”?
A: binding result [1]: binds; binding result [2]: binds; binding result [3]: binds; binding result [4]: binds; binding result ([5]; strong binding to alternate target): binds

Q: Does “CGGCTGGATTACCG (double strand) [target C]” bind [6]?
A: binds

Q: Does “CGGCTGGATTACCG (double strand) [target C]” bind [7]?
A: binds

Q: Does “CGGCTGGATTACCG (double strand) [target C]” bind ([8]; strong binding to alternate target sharing a 6 bp stretch)?
A: binds

Q: Which results are given for “CGCTATCCAGAGCG (double strand) [target E]”?
A: binding result [9]: binds; binding result [10]: binds; binding result [11]: binds; binding result [12]: binds; binding result [13]: binds; binding result [14]: binds; binding result [15]: binds; binding result ([8]; strong, site ATCCAG): binds; binding result [16]: binds; binding result [17]: binds; binding result [18]: binds

Q: Does “TAGCAGGATGTGT (double strand) [target A]” bind [19]?
A: binds

Q: Does “TAGCAGGATGTGT (double strand) [target A]” bind [20]?
A: binds

Q: Does “TAGCAGGATGTGT (double strand) [target A]” bind [21]?
A: binds

Q: Does “TAGCAGGATGTGT (double strand) [target A]” bind [22]?
A: binds

Q: Does “TAGCAGGATGTGT (double strand) [target A]” bind [23]?
A: binds

Q: Does “TAGCAGGATGTGT (double strand) [target A]” bind [24]?
A: binds

Q: Does “TAGCAGGATGTGT (double strand) [target A]” bind [25]?
A: binds

Q: Does “TAGCAGGATGTGT (double strand) [target A]” bind [26]?
A: binds

Q: Does “TAGCAGGATGTGT (double strand) [target A]” bind [27]?
A: binds

Q: Does “TAGCAGGATGTGT (double strand) [target A]” bind [28]?
A: binds

Q: Does “TAGCAGGATGTGT (double strand) [target A]” bind [29]?
A: binds

Q: Does “TAGCAGGATGTGT (double strand) [target A]” bind ([5]; initial design target)?
A: binds more weakly

From patent US20250051407
